This is an account of results in the supplement of paper PMC8728848.

This is one part of the list.

Holding throughout (experiment): glycan array binding signal (z-score within array); higher = stronger binding
Conditions in all cases: glycan notation: IUPAC condensed, linker removed

Assay [1] concerns the target Gal(b1-4)GlcNAc(b1-3)Gal(b1-4)Glc. The procedure, abridged: (§1)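 Glycan array binding is given as a within-array Z-score, which can be read as non-binding when negative. The arrays, 3228 of them, came from the Consortium for Functional Glycomics database and were retained only where the protein sequence was available. Z-scores were averaged across arrays of the same protein sequence at different concentrations or buffers and across linkers.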

The target of assay [2] is Gal(b1-4)GlcNAc(b1-3)Gal(b1-4)GlcNAc. In short, it runs like this: as §1
Assay [3] addresses Gal(b1-4)GlcNAc(b1-3)Gal(b1-4)GlcNAc(b1-2)Man(a1-3)[Gal(b1-4)GlcNAc(b1-3)Gal(b1-4)GlcNAc(b1-2)Man(a1-6)]Man(b1-4)GlcNAc(b1-4)GlcNAc. The procedure, abridged:
as §1

The target in assay [4] is Gal(b1-4)GlcNAc(b1-3)Gal(b1-4)GlcNAc(b1-2)Man(a1-3)[Gal(b1-4)GlcNAc(b1-3)Gal(b1-4)GlcNAc(b1-2)Man(a1-6)]Man(b1-4)GlcNAc(b1-4)[Fuc(a1-6)]GlcNAc. In short, it runs like this:
as §1

The target in assay [5] is Gal(b1-4)GlcNAc(b1-3)Gal(b1-4)GlcNAc(b1-2)[Gal(b1-4)GlcNAc(b1-3)Gal(b1-4)GlcNAc(b1-6)]Man(a1-6)[Gal(b1-4)GlcNAc(b1-3)Gal(b1-4)GlcNAc(b1-2)Man(a1-3)]Man(b1-4)GlcNAc(b1-4)GlcNAc. The procedure, abridged:
as §1

Assay [6] concerns the target Gal(b1-4)GlcNAc(b1-3)Gal(b1-4)GlcNAc(b1-2)[Gal(b1-4)GlcNAc(b1-3)Gal(b1-4)GlcNAc(b1-6)]Man(a1-6)[Gal(b1-4)GlcNAc(b1-3)Gal(b1-4)GlcNAc(b1-2)Man(a1-3)]Man(b1-4)GlcNAc(b1-4)[Fuc(a1-6)]GlcNAc. The procedure, abridged:
as §1

Assay [7] concerns the target Gal(b1-4)GlcNAc(b1-3)Gal(b1-4)GlcNAc(b1-3)Gal(b1-4)GlcNAc. The procedure, abridged:
as §1

Assay [8] concerns the target Gal(b1-4)GlcNAc(b1-3)Gal(b1-4)GlcNAc(b1-3)Gal(b1-4)GlcNAc(b1-2)Man(a1-3)[Gal(b1-4)GlcNAc(b1-3)Gal(b1-4)GlcNAc(b1-3)Gal(b1-4)GlcNAc(b1-2)Man(a1-6)]Man(b1-4)GlcNAc(b1-4)GlcNAc. The procedure, abridged: as §1
In assay [9] the target is Gal(b1-4)GlcNAc(b1-3)Gal(b1-4)GlcNAc(b1-3)Gal(b1-4)GlcNAc(b1-2)Man(a1-3)[Gal(b1-4)GlcNAc(b1-3)Gal(b1-4)GlcNAc(b1-3)Gal(b1-4)GlcNAc(b1-2)Man(a1-6)]Man(b1-4)GlcNAc(b1-4)[Fuc(a1-6)]GlcNAc. In short, it runs like this:
as §1

Assay [10] addresses Gal(b1-4)GlcNAc(b1-3)Gal(b1-4)GlcNAc(b1-3)Gal(b1-4)GlcNAc(b1-2)[Gal(b1-4)GlcNAc(b1-3)Gal(b1-4)GlcNAc(b1-3)Gal(b1-4)GlcNAc(b1-6)]Man(a1-6)[Gal(b1-4)GlcNAc(b1-3)Gal(b1-4)GlcNAc(b1-3)Gal(b1-4)GlcNAc(b1-2)Man(a1-3)]Man(b1-4)GlcNAc(b1-4)[Fuc(a1-6)]GlcNAc. The procedure, abridged: as §1
The target of assay [11] is Gal(b1-4)GlcNAc(b1-3)Gal(b1-4)GlcNAc(b1-3)Gal(b1-4)GlcNAc(b1-3)Gal(b1-4)GlcNAc(b1-2)Man(a1-3)[Gal(b1-4)GlcNAc(b1-3)Gal(b1-4)GlcNAc(b1-3)Gal(b1-4)GlcNAc(b1-3)Gal(b1-4)GlcNAc(b1-2)Man(a1-6)]Man(b1-4)GlcNAc(b1-4)GlcNAc. The procedure, abridged:
as §1

Assay [12] addresses Gal(b1-4)GlcNAc(b1-3)Gal(b1-4)GlcNAc(b1-3)Gal(b1-4)GlcNAc(b1-3)Gal(b1-4)GlcNAc(b1-2)Man(a1-3)[Gal(b1-4)GlcNAc(b1-3)Gal(b1-4)GlcNAc(b1-3)Gal(b1-4)GlcNAc(b1-3)Gal(b1-4)GlcNAc(b1-2)Man(a1-6)]Man(b1-4)GlcNAc(b1-4)[Fuc(a1-6)]GlcNAc. In short, it runs like this: as §1
Assay [13] has as its target Gal(b1-4)GlcNAc(b1-3)Gal(b1-4)GlcNAc(b1-3)Gal(b1-4)GlcNAc(b1-3)Gal(b1-4)GlcNAc(b1-2)[Gal(b1-4)GlcNAc(b1-3)Gal(b1-4)GlcNAc(b1-3)Gal(b1-4)GlcNAc(b1-3)Gal(b1-4)GlcNAc(b1-6)]Man(a1-6)[Gal(b1-4)GlcNAc(b1-3)Gal(b1-4)GlcNAc(b1-3)Gal(b1-4)GlcNAc(b1-3)Gal(b1-4)GlcNAc(b1-2)Man(a1-3)]Man(b1-4)GlcNAc(b1-4)[Fuc(a1-6)]GlcNAc. In short, it runs like this: as §1
Assay [14] concerns the target Gal(b1-4)GlcNAc(b1-3)Gal(b1-4)GlcNAc(b1-3)Gal(b1-4)GlcNAc(b1-3)Gal(b1-4)GlcNAc(b1-3)Gal(b1-4)GlcNAc(b1-2)Man(a1-3)[Gal(b1-4)GlcNAc(b1-3)Gal(b1-4)GlcNAc(b1-3)Gal(b1-4)GlcNAc(b1-3)Gal(b1-4)GlcNAc(b1-3)Gal(b1-4)GlcNAc(b1-2)Man(a1-6)]Man(b1-4)GlcNAc(b1-4)GlcNAc. The procedure, abridged: as §1
The target in assay [15] is Gal(b1-4)GlcNAc(b1-3)Gal(b1-4)GlcNAc(b1-3)Gal(b1-4)GlcNAc(b1-3)Gal(b1-4)GlcNAc(b1-3)Gal(b1-4)GlcNAc(b1-2)Man(a1-3)[Gal(b1-4)GlcNAc(b1-3)Gal(b1-4)GlcNAc(b1-3)Gal(b1-4)GlcNAc(b1-3)Gal(b1-4)GlcNAc(b1-3)Gal(b1-4)GlcNAc(b1-2)Man(a1-6)]Man(b1-4)GlcNAc(b1-4)[Fuc(a1-6)]GlcNAc. In short, it runs like this: as §1
For assay [16], the target named is Gal(b1-4)GlcNAc(b1-3)Gal(b1-4)GlcNAc(b1-3)Gal(b1-4)GlcNAc(b1-3)Gal(b1-4)GlcNAc(b1-3)Gal(b1-4)GlcNAc(b1-2)[Gal(b1-4)GlcNAc(b1-3)Gal(b1-4)GlcNAc(b1-3)Gal(b1-4)GlcNAc(b1-3)Gal(b1-4)GlcNAc(b1-3)Gal(b1-4)GlcNAc(b1-6)]Man(a1-6)[Gal(b1-4)GlcNAc(b1-3)Gal(b1-4)GlcNAc(b1-3)Gal(b1-4)GlcNAc(b1-3)Gal(b1-4)GlcNAc(b1-3)Gal(b1-4)GlcNAc(b1-2)Man(a1-3)]Man(b1-4)GlcNAc(b1-4)[Fuc(a1-6)]GlcNAc. In short, it runs like this: as §1

Assay [17] has as its target Gal(b1-4)GlcNAc(b1-3)Gal(b1-4)GlcNAc(b1-3)Gal(b1-4)GlcNAc(b1-3)Gal(b1-4)GlcNAc(b1-3)Gal(b1-4)GlcNAc(b1-3)Gal(b1-4)GlcNAc(b1-2)Man(a1-3)[Gal(b1-4)GlcNAc(b1-3)Gal(b1-4)GlcNAc(b1-3)Gal(b1-4)GlcNAc(b1-3)Gal(b1-4)GlcNAc(b1-3)Gal(b1-4)GlcNAc(b1-3)Gal(b1-4)GlcNAc(b1-2)Man(a1-6)]Man(b1-4)GlcNAc(b1-4)GlcNAc. The procedure, abridged:
as §1

For assay [18], the target named is Gal(b1-4)GlcNAc(b1-3)Gal(b1-4)GlcNAc(b1-3)GalNAc. In short, it runs like this:
as §1

The target of assay [19] is Gal(b1-4)GlcNAc(b1-3)Gal(b1-4)GlcNAc(b1-3)[Gal(b1-4)GlcNAc(b1-3)Gal(b1-4)GlcNAc(b1-6)]GalNAc. In short, it runs like this:
as §1

B1: Wzz (Escherichia coli) (protein)
chain: MRTWKFPSVRVMMRVENNNVSGQNHDPEQIDLIDLLVQLWRGKMTIIISVIVAIVLAIGYLAVAKEKWTSTAIITQPDVGQIAGYNNAMNVIYGQAAPKVSDLQETLIGRFSSAFSALAETLDNQEEPEKLTIEPSVKNQQLPLTVSYVGQTAEGAQMKLAQYIQQVDDKVNQELEKDLKDNIALGRKNLQDSLRTQEVVAQEQKDLRIRQIQEALQYANQAQVTKPQIQQTGEDITQDTLFLLGSEALESMIKHEATRPLVFSSNYYQTRQNLLDIDNLDVDKLDIHAYLYVMKPTLPIRRDSPKKAITLILAVLLGGMVGAGIVLGRNALRNYNAK
Take B1: the “glycan array binding signal (z-score)” value is -0.169 in assay [1]; -0.383 in assay [2]; -0.619 in assay [3]; 0.185 in [4]; 0.188 in [5]; -0.048 in [6]. Further, the “glycan array binding signal (z-score)” value in [7] is -0.557; in [8] it was -0.025; in assay [9], -0.214; in assay [10] it was -0.404; in assay [11], -0.218; in assay [12], -0.227. Further, the “glycan array binding signal (z-score)” value was -0.147 in assay [13]; -0.287 in assay [14]; -0.081 in assay [15]; 0.47 in assay [16]; 0.333 in assay [17]; 0.433 in assay [18]. The “glycan array binding signal (z-score)” value in [19] came out at 0.129.
